For at least one compound, name, drawing or mass did not settle the structure.
Legend:
[1] = tested on: human corpus cavernosum trabecular strips; assay: Organ chamber studies, corpus cavernosum tissue strips (phenylephrine-contracted)
[2] = tested on: human penile resistance arteries (HPRA); assay: Vascular reactivity of resistance penile arteries (myograph, norepinephrine-contracted); details: L-NNA 100 μM + indomethacin 5 μM; an important component of relaxation remained
Text: Penile small arteries, helicine arteries (lumen diameter 150-400 μm), which are the terminal branches of deep penile arteries, were dissected by carefully removing the adhering trabecular tissue, and arterial ring segments (of 2 mm length) were subsequently mounted on two 40 μm wires on microvascular double Halpern-Mulvany myographs (J.P. Trading, Aarhus, Denmark) for isometric tension recordings. […] Passive tension and internal circumference of the vascular segments when relaxed in situ under a transmural pressure of […] (L100) were determined. […]
The preparations were then exposed to 125 mM K^+(KPSS, equimolar substitution of […] in PSS) and the contractile response was measured. The arteries were contracted with 1 μm norepinephrine (approximately 80% of KPSS induced contraction) and relaxation responses were evaluated by cumulative additions of compounds to the chambers.
Relaxation responses are expressed as percentage of total relaxation (loss in tone) induced by the addition of 0.1 mM papaverine HCl to the chambers at the end of the experiment. All data are expressed as mean ± standard error. […] Erectile responses were determined by measuring the area under the curve (AUC) of the intracavemosal pressure increases to rat cavemosal nerve stimulation normalized by mean arterial pressure values. […]

CC(=O)OCC[N+](C)(C)C [acetylcholine]
relaxation of trabecular tissue strips ([1]; ACh 1 nM to 10 μM): concentration-dependent relaxation
ACh relaxation of trabecular strips after L-NNA and indomethacin ([1]; L-NNA 100 μM + indomethacin 5 μM): nearly abolished
ACh-induced relaxation of penile arteries after L-NNA and indomethacin [2]: significantly reduced

Reference: patent US20060135611A1, “Use of 2,5-dihydroxybenzenesulfonic compounds for the treatment of disorders based on an impairment of no production and/or of regulation of edhf function” (priority 2002, published 2006)
